{"source": "PubChem BioAssay AID1159578 (Peter MacCallum Cancer Centre, 2015)", "screen": "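Knock-downs that alter how fast lymphatic endothelial cells migrate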 (primary screen)", "cell system": "human lymphatic endothelial cells", "knock-down reagent": "siRNA pool against human genes, 40 nM", "time to read-out": "48 h after transfection", "detection": "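High-content imaging of dye-stained cells in a scratch assay measures filled wound area and nuclei per well; duplicate means given as ratio to mock and robust z-score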", "scale": "migration robust z-score: higher = faster migration into the scratch; nuclei per well: higher = more cells in the well", "rule for the call": "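Pools averaging fewer than 3300 nuclei are never called; remaining pools count as changed when migration robust z lies outside -2 to 2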", "meaning of the calls": "active = migration changed; inactive = no migration change, or too few cells", "note": "The deposit covers about 18,000 reagents; this is a part drawn at random. About 1,030 of them (5.7%) were called active. 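Inactive calls also include pools with fewer than 3300 nuclei, whose migration was not assessed.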 The raw values are shown without normalisation. Entries without a mark were called inactive. Not all columns of the deposit are shown."}
{"gene knocked down": "GALM", "migration robust z-score": 0.36, "nuclei per well, duplicate mean": 7214}
{"gene knocked down": "CORO1C", "migration robust z-score": -1.02, "nuclei per well, duplicate mean": 4154}
{"gene knocked down": "TXNDC5", "migration robust z-score": 0.6, "nuclei per well, duplicate mean": 4931}
{"gene knocked down": "DLAT", "migration robust z-score": -0.57, "nuclei per well, duplicate mean": 5618}
{"gene knocked down": "NUAK1", "migration robust z-score": -0.29, "nuclei per well, duplicate mean": 5380}
{"gene knocked down": "VPS25", "migration robust z-score": 1.87, "nuclei per well, duplicate mean": 6935}
{"gene knocked down": "PKD2", "migration robust z-score": -0.8, "nuclei per well, duplicate mean": 3674}
{"gene knocked down": "ARHGAP18", "migration robust z-score": -0.39, "nuclei per well, duplicate mean": 5530}
{"gene knocked down": "MMP10", "migration robust z-score": 0.36, "nuclei per well, duplicate mean": 5350}
{"gene knocked down": "COMMD5", "migration robust z-score": 1.6, "nuclei per well, duplicate mean": 5834}
{"gene knocked down": "NCKAP1L", "migration robust z-score": -4.64, "nuclei per well, duplicate mean": 2550}
{"gene knocked down": "CDK2AP2", "migration robust z-score": 0.89, "nuclei per well, duplicate mean": 4834}
{"gene knocked down": "PRRT3", "migration robust z-score": -0.6, "nuclei per well, duplicate mean": 6024}
{"gene knocked down": "ACSL1", "migration robust z-score": -0.18, "nuclei per well, duplicate mean": 5116}
{"gene knocked down": "LRRC15", "migration robust z-score": -1.4, "nuclei per well, duplicate mean": 2517}
{"gene knocked down": "CASC3", "migration robust z-score": 1.02, "nuclei per well, duplicate mean": 7484}
{"gene knocked down": "USP6", "migration robust z-score": 1.58, "nuclei per well, duplicate mean": 5360}
{"gene knocked down": "KIAA1191", "migration robust z-score": 1.04, "nuclei per well, duplicate mean": 5388}
{"gene knocked down": "MYH13", "migration robust z-score": -0.2, "nuclei per well, duplicate mean": 7287}
{"gene knocked down": "CEP97", "migration robust z-score": 0.31, "nuclei per well, duplicate mean": 6198}
{"gene knocked down": "ACTN4", "migration robust z-score": -1.36, "nuclei per well, duplicate mean": 5202}
